Test results as given in article PMC4851370, “The N-Terminus of the Floral Arabidopsis TGA Transcription Factor PERIANTHIA Mediates Redox-Sensitive DNA-Binding”.
Construct, isoform or probe ends are uncertain for at least one entry. Weaker means in comparison with the reference protein, sequence or condition of that experiment. Where a protein sequence is shown, tags need not be part of it.

Biological target: T1, PERIANTHIA (PAN) (Arabidopsis thaliana) (UniProt Q9SX27)
T1 sequence (looked up): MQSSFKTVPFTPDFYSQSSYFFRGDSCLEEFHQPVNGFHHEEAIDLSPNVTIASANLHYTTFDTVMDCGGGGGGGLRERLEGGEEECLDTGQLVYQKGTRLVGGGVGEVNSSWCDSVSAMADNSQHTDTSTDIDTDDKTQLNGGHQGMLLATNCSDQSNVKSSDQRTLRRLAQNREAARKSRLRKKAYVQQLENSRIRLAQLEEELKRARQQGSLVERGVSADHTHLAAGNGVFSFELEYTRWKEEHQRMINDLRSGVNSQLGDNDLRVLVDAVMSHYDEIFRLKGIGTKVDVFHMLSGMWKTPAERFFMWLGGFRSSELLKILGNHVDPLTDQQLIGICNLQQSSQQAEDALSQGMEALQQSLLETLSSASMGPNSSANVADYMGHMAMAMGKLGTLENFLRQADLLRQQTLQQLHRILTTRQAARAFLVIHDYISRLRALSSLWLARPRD
Test: EMSA
Conditions: shifted band, weaker than AAGAAT; with or without 0.9 or 20 mM DTT or 2 mM diamide, 30 min in the dark before probe addition; protein translated in vitro; residues 1-452; label: 5' 32P

CTACGTCACTATTTTACTTACGTCATAG (double strand) [as-1-like]
binding result: binds more weakly
